Results are given in words; binding and its absence hold for the method and conditions named. Binding calls can cover weak binding; strength is not graded here. Where a sequence is shown, tags or fusion partners need not be part of it.
Biological target: FIGNL1 (full-length, yeast two-hybrid fusion) (rice (Oryza sativa))
Test: two-hybrid; pairwise test of constructs in pGADT7 and pGBKT7 in yeast strain Y2H Gold; growth on DDO and QDO/X/A plates

binding	Binder
binds	DMC1A (yeast two-hybrid fusion) (protein, UniProt Q7GBF8 1-344) MAPSKQYSEGGQLQLMDAERIEEEEECFESIDKLISQGINSGDVKKLQDAGIYTCNGLMMHTKKSLTGIKGLSEAKVDKICEAAEKLLSQGFITGSDLLIKRKSVVRITTGSQALDKLLGGGIETLCITEAFGEFRSGKTQLAHTLCVSAQLPIHMHGGNGKVAYIDTEGTFRPERIVPIAERFGMDANAVLDNIIYARAYTYEHQYNLLLGLAAKMAEEPFRLLIVDSVIALFRVDFSGRGELAERQQKLAQMLSRLTKIAEEFNVAVYITNQVIADPGGGMFITDLKKPAGGHVLAHAATIRLMLRKGKGEQRVCKIFDAPNLPEGEAVFQVTSGGIMDAKD
binds	DMC1B (yeast two-hybrid fusion) (protein, UniProt Q7GBF7 1-344) MAPSKQYDEGGQLQLMDAERIEEEEECFESIDKLISQGINSGDVKKLQDAGIYTCNGLMMHTKKSLTGIKGLSEAKVDKICEAAEKLLSQGFMTGSDLLIKRKSVVRITTGSQALDELLGGGIETLCITEAFGEFRSGKTQLAHTLCVSTQLPIHMHGGNGKVAYIDTEGTFRPERIVPIAERFGMDANAVLDNIIYARAYTYEHQYNLLLGLAAKMAEEPFRLLIVDSVIALFRVDFSGRGELAERQQKLAQMLSRLTKIAEEFNVAVYITNQVIADPGGGMFITDPKKPAGGHVLAHAATIRLMLRKGKGEQRVCKIFDAPNLPEGEAVFQVTSGGIMDAKD

Reference: paper PMC9310568
